Experimental data: PubChem BioAssay AID1671190 (National Center for Advancing Translational Sciences (NCATS), 2021)
The campaign covered roughly 580,000 compounds. About 6,100 (1.1%) were called active. The inconclusive results got no clear call from the source; some entries with a clear call stand among them for comparison. Calls come from the whole dose curve; as a rule, active = well fitted inhibition curve with a large enough effect; inconclusive = small, poorly fitted or top-dose-only effect, or another doubt; inactive = no such curve, though single readings can be large or run the other way. Potencies beside an inconclusive call are fits to weak or partial responses and may not hold up.

Amino acid sequences for entries named in this document (tags omitted).
UniProt P18054, whole entry, looked up: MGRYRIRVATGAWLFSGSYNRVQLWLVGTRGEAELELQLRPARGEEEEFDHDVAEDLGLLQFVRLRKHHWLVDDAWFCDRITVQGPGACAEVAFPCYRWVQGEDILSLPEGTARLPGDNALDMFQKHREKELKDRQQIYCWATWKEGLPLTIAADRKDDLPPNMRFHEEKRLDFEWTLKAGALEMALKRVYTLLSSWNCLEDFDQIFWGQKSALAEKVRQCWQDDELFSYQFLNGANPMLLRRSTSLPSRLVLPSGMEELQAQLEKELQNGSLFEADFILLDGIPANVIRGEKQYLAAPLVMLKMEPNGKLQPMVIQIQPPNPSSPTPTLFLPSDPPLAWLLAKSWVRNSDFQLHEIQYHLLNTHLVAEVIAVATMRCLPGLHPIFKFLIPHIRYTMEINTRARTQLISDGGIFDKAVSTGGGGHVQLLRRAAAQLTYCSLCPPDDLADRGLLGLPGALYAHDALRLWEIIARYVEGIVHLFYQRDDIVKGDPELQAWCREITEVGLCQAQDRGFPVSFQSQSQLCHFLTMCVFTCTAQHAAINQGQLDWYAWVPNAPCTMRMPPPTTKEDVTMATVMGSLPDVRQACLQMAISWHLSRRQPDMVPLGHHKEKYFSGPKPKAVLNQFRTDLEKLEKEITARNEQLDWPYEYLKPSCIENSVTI

molecular target: Polyunsaturated fatty acid lipoxygenase ALOX12 (Homo sapiens) (UniProt P18054); test: Primary qHTS assay for inhibitors of human arachidonate 12S-lipoxygenase (ALOX12): Round 2; settings: purified 12hLO, xylenol orange hydroperoxide absorbance; activity change, negative = inhibition: at 108 µM (top of the series)
Method in brief: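 Hydroperoxide product was detected by ferrous iron/xylenol orange as the 573 to 405 nm absorbance ratio. Arachidonic acid at 40 uM (final) was turned over for 30 min at room temperature by 150 nM human 12hLO, pH 7.0 Hepes buffer, after 15 min compound preincubation.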
% is set by controls: 0 for no effect and ±100 for the full control effect; potency is the fitted concentration of half-maximal effect.

Structure (SMILES)	activity change, negative = inhibition	Potency
O=C1Nc2ccccc2CNC12CCN(Cc1ccncc1)CC2	inconclusive: -30.1% [inhibitor]	
CN(C(=O)Cc1ccc(Cl)c(Cl)c1)C(CN1CCCC1)c1cccc(N=C=S)c1 (centres undefined)		inconclusive: 35.5 µM [inhibitor, partial curve, poor fit]
COc1ccc(C)cc1NC(=O)c1c(C)nn(Cc2ccccc2)c1Cl		inactive
COc1ccc(F)c(CNCCc2c(C)[nH]c3ccc(OC)cc23)c1		inconclusive: 0.708 µM [inhibitor, full curve, poor fit]
CC1=NN(c2ccccc2)C(=O)C1/C=C1\C(=O)NC(=O)N(c2cc(C)cc(C)c2)C1=O (centres undefined)		inconclusive: 44.7 µM [inhibitor, partial curve, poor fit]
CCc1ccc(N2C(=O)CC(=O)NC2=O)cc1		inconclusive: 89.1 µM [inhibitor, single point]
CCC1(N2CCN(C(=O)Cc3ccc(Cl)cc3)CC2)CCN(S(C)(=O)=O)C1 (centres undefined)		inactive
CN(C)C(=O)OCc1n(C)cc[n+]1C		inactive
C=CCN1C(=O)/C(=C/c2ccc(Br)s2)C(=O)NC1=S		active: 5.62 µM
O=C(NCCN1CCC2(CC1)C(=O)NCN2c1ccccc1)c1ccc2ccccc2c1		inconclusive: 44.7 µM [inhibitor, partial curve, poor fit]
C[Se]C[C@H](N)C(=O)O		inconclusive: 1.78 µM [inhibitor, partial curve, poor fit]
O=C(COc1ccc(Cl)cc1)N1CCN(Cc2ccccc2)CC1		inactive
CCN1C[C@]2(COC(=O)c3ccccc3N)CC[C@H](OC)C34[C@@H]5C[C@H]6[C@H](OC)[C@@H]5[C@](O)(C[C@@H]6OC)[C@@](O)([C@H]13)[C@@H](OC)[C@@H]42		inconclusive: 3.16 µM [inhibitor, full curve, poor fit]
O=c1c2ccccc2nc(CBr)n1-c1ccc(Cl)cc1		inconclusive: 39.8 µM [inhibitor, partial curve, poor fit]
CC(C)c1ccc(NC(=O)N2C[C@H]3C[C@@H](C2)c2cccc(=O)n2C3)cc1		inactive
O=C(NCC1=C(c2ccc3ccccc3c2)C[C@@H]2CC[C@H]1N2Cc1ccco1)c1cccnc1		inconclusive: 100 µM [inhibitor, partial curve, poor fit]
CN(C=O)CP(=O)(O)CN(C)C=O		inconclusive: 31.6 µM [inhibitor, partial curve, poor fit]
Cc1cc(/C=C2\C(=O)NC(=O)N(c3ccc(Cl)cc3)C2=O)c(C)n1-c1cccc(C(=O)O)c1		inconclusive: 28.2 µM [inhibitor, partial curve, poor fit]
COc1ccc(S(=O)(=O)N2Cc3cnnn3-c3ccccc3C2C#N)cc1 (centres undefined)		inactive
NN=C1C(Cl)=C(Cl)C(Cl)=C1Cl		inconclusive: 56.2 µM [inhibitor, partial curve, poor fit]
CC(NC(C)(C)C)C(=O)c1cccc(Cl)c1 (centres undefined)		inactive
Cn1cc[n+](C)c1P(=S)(c1ccccc1)c1ccccc1		inconclusive: 44.7 µM [inhibitor, partial curve, poor fit]

Structure (SMILES)	activity change, negative = inhibition	Potency
Cc1[nH]c2ccc(F)cc2c1CC(=O)N1CCN(CC(=O)N2CCCC2)CC1		inactive
COc1cc(OC)cc(C(=O)NC(=S)N2C[C@H]3C[C@H](C2)c2cccc(=O)n2C3)c1		inconclusive: 1.26 µM [inhibitor, partial curve, poor fit]
CCN1CCN(C(=O)COc2ccc(S(=O)(=O)N(C)Cc3ccccc3)cc2)CC1		inconclusive: 89.1 µM [inhibitor, partial curve, poor fit]
CC(C)n1c(O)c(C=NCc2ccccc2)c(=O)[nH]c1=S		inconclusive: 31.6 µM [inhibitor, partial curve, poor fit]
CN(C)CC1CCCCC1OC(=O)Cc1ccc(Cl)c([N+](=O)[O-])c1 (centres undefined)		inconclusive: 50.1 µM [inhibitor, partial curve, poor fit]
CN1C(=O)C(=Cc2sc(=O)n(-c3ccccc3)c2N2CCCCC2)C(=O)N(C)C1=O		inconclusive: 100 µM [inhibitor, partial curve, poor fit]
CC[C@H]1CN2CC[C@H]1C[C@@H]2CNC(=O)COc1ccccc1		inactive
c1ccc(P(c2ccccn2)c2ccccn2)cc1		inconclusive: 44.7 µM [inhibitor, partial curve, poor fit]
Cc1cc(/C=C2/C(=O)NC(=O)N(Cc3ccco3)C2=O)c(C)n1-c1ccccc1O		inconclusive: 44.7 µM [inhibitor, partial curve, poor fit]
CN1C(=O)C(=Cc2ccccc2OCc2ccc(Cl)cc2)C(=O)N(C)C1=O		inconclusive: 39.8 µM [inhibitor, partial curve, poor fit]
COc1ccccc1-c1cc([C@H]2CN3CC[C@H]2C[C@@H]3COC(=O)Nc2ccc(C(C)C)cc2)n(C)n1		inconclusive: 70.8 µM [inhibitor, partial curve, poor fit]
O=C(O)C1=NOC2CN(CC3CCCCC3)CC12 (centres undefined)		inconclusive: 8.91 µM [inhibitor, full curve, poor fit]
Cc1ccc(-n2c(O)c(/C=N/NC(=O)c3ccncc3)c(=O)[nH]c2=O)cc1C		inactive
C#CC1(O)CCC2C3CCC4=CC(=O)CCC4=C3C=CC21C (centres undefined)		inconclusive: 44.7 µM [inhibitor, partial curve, poor fit]
Cc1ncoc1C(=O)NCC1=C(c2ccc(S(C)(=O)=O)cc2)C[C@@H]2CC[C@H]1N2CCOc1ccccc1		inconclusive: 100 µM [inhibitor, single point]
Cc1ccc2[nH]c(C)c(C(O)CN3CCCCC3)c2c1 (centres undefined)		inconclusive: 44.7 µM [inhibitor, partial curve, poor fit]
O=C(Nc1ccc2n(c1=O)C[C@H]1C[C@@H]2CN(C(=O)c2ccccn2)C1)c1cccs1		inconclusive: 35.5 µM [inhibitor, partial curve, poor fit]
COc1cc(CN2CCNCC2)cc(OC)c1OC		active: 6.31 µM
COc1ccccc1C(=O)N1[C@H]2CC[C@@H]1c1cnc(-c3ccc(F)cc3)nc1C2		inactive
CCNC(=O)NC[C@H]1C[C@@H]2CCN1C[C@@H]2c1cc(-c2ccc3ccccc3c2)nn1C		inactive
O=C1C2CCCN2C(c2cccs2)N1c1ccccn1 (centres undefined)		inconclusive: 39.8 µM [inhibitor, single point]
C#C[C@H]1CN2CC[C@H]1C[C@@H]2CNC(=O)c1ccc(F)c(Cl)c1		inactive

Random excerpt: 2 entries already listed
Structure (SMILES)	activity change, negative = inhibition	Potency
O=C(NCC1=C(c2ccc3ccccc3c2)C[C@@H]2CC[C@H]1N2Cc1ccco1)c1cccnc1		inconclusive: 100 µM [inhibitor, partial curve, poor fit]
CC(NC(C)(C)C)C(=O)c1cccc(Cl)c1 (centres undefined)		inactive

(cont.)

Structure (SMILES)	activity change, negative = inhibition	Potency
CN(C)[C@@H]1C(=O)C(C(N)=O)=C(O)[C@@]2(O)C(=O)C3=C(O)c4c(O)cccc4[C@@](C)(O)[C@H]3C[C@@H]12		inconclusive: 1.41 µM [inhibitor, full curve, poor fit]
CCc1cnc(N2CCC3(CC2)C(=O)Nc2cc(OCC4CC4)c(OC)cc23)nc1		inactive
CN(C)CCSCc1nnc2n1-c1ccc(Cl)cc1C(c1ccccc1Cl)=NC2		inactive
COc1ccccc1-n1c(/C=C/c2ccccc2)nc2ccccc2c1=O		inactive
COc1cc2c(cc1OCc1ccccc1)NC(=O)C21CCN(c2ccnc(C)n2)CC1		inactive
CCC(=Nc1ccc2c(c1)CCC2)c1c(O)n(C2CCCCC2)c(=O)[nH]c1=O		inconclusive: 1.78 µM [inhibitor, full curve, poor fit]
Cn1c(CCCC(=O)O)nc2cc(N(CCCl)CCCl)ccc21		inconclusive: 4.85 µM [inhibitor, partial curve, poor fit]
CN(C)C(=O)Oc1ccnc2cc(Cl)ccc12		inactive
COC1=CC=C2[C@H]3Cc4ccc(OC)c5c4[C@@]2(CCN3C)[C@H]1O5		inactive
Cc1ccc(/C=C2\C(=O)NC(=O)N(CCc3ccc(F)cc3)C2=O)s1		inconclusive: 50.1 µM [inhibitor, partial curve, poor fit]
Cc1ccc(C(=O)NCCN2CCC3(CC2)C(=O)NCN3c2ccccc2)cc1		inconclusive: 44.7 µM [inhibitor, partial curve, poor fit]
c1cncc(CNCCN2CCCC2)c1		inconclusive: 7.94 µM [inhibitor, full curve, poor fit]
O=C1CN=C(c2ccccc2)c2cc(Cl)ccc2N1Cc1ccc(Cl)cc1		inconclusive: 44.7 µM [inhibitor, partial curve]
CCN(CC)P(=O)(c1nccn1C)N(CC)CC		inconclusive: 50.1 µM [inhibitor, partial curve, poor fit]
Cc1nc(-c2ccco2)cc([C@H]2CN3CC[C@H]2C[C@@H]3CNC(=O)NC2CCCCC2)n1		inconclusive: 12.6 µM [inhibitor, full curve]
O=c1[nH]c(=O)n(Cc2ccco2)c(O)c1/C=N/N1CCCCC1		inconclusive: 39.8 µM [inhibitor, partial curve]
COc1ccc2c(c1)NP(=S)(c1ccccc1)N2 (centres undefined)		inconclusive: 22.4 µM [inhibitor, partial curve, poor fit]
CCCOC(=O)c1ccc(-[n+]2c(-c3ccccc3)cc(-c3ccccc3)cc2-c2ccccc2)cc1		inconclusive: 70.8 µM [inhibitor, partial curve, poor fit]
Cc1cccc(N2C(=O)/C(=C/c3ccc(N4CCN(C)CC4)o3)C(=O)NC2=S)c1C		active: 44.7 µM
COc1ccccc1CCNCc1cccc(C(F)(F)F)c1		inconclusive: 0.562 µM [inhibitor, full curve, poor fit]
